Values of other authors as cited in patent US6656923B1, “Uncomplexed cyclodextrin compositions for odor and wrinkle control” (The Procter & Gamble Company, priority 1997, dated 2003).
Some results were stated once for a whole list of compounds, not compound by compound. At least one compound was matched to its structure with a doubt left.

Settings: cited from earlier work

For `O=c1[nH]sc2ccccc12` [Proxel, 1,2-benzisothiazolin-3-one], the “stability over a wide pH range” value is listed as 4-12 pH.
